In this data set the test system is NF90. Nature of the data set: EMSA. The note with it: pH and temperature not given, at least three replicates, recombinant protein, label: radiolabel. (A gel shift assay detects complexes by their altered migration in electrophoresis.)
Setting [1] is: relative to pri-miR-200a, probe letters rebuilt from the primers and the genome, part of a longer molecule.

The exact form of at least one protein or probe is not confirmed. A weaker result is weaker than the reference pair of the same experiment.

Regarding “AGAGAUGAGGAAGGUUAUGGCUGAGGAACUGGCAUCUAUGAAAGCCAGAUUCAGCUUUCCCUUCAGAGCCUGGCUUUGGCAUCUAUGAAAGCCAGGCUCUGAAGGGAAAGUUGAAUCUUGCUAGAGUGGAGAAUUGAGGAAGAGAUGAGAUGUUAAGGCAAGCCGAGUCUAUGAGGUUUGGGCCA [pri-miR-4755]”, the binding result under setting [1] was “binds”.
On to “CCCUUCUACCUUUCUGAAGCUCCUUCUGAAAGAGCAGUUGGUGUUUAUUUUUUACUAAAUAGCAAUUGCUCUUUUGGAAGGAACUUGAGAAGACAUUACUCCUUUUAGGGCCCUAAAAUUAACAGUGGUUUCUACUACUAACAGAUACUAUAGCUAUAAAGGACAUGUAGAAACCAACAAUUGUUGAGUGCCACCUGUGUG [pri-miR-4766]”, for which the binding result under setting [1] is “binds”.
On to “CUGGCUGCUCACCGCUCCGGUUCUUCCCUGGGCUUCCACAGCAGCCCCUGCCUGCCUGGCGGGACCCCACGUCCCUCCCGGGCCCCUGUGAGCAUCUUACCGGACAGUGCUGGAUUUCCCAGCUUGACUCUAACACUGUCUGGUAACGAUGUUCAAAGGUGACCCGCCGCUCGCCGGGGACACCACCGAGGCACAUC [pri-miR-200a WT]”, for which, where the note is “not highly associated”, the binding result is “binds more weakly”.

The record behind these values is article PMC7337520.
